These are yes or no findings as the source states them, for the method shown.
Experiments:
Assay in all cases: native gel or EMSA
[1] = biological target: T1, M. tuberculosis CRISPR/Cas protein Csm2 (secreted, in culture filtrate) (M. tuberculosis H37Rv (endogenous in culture filtrate)) (UniProt P9WJG0)
T1 sequence: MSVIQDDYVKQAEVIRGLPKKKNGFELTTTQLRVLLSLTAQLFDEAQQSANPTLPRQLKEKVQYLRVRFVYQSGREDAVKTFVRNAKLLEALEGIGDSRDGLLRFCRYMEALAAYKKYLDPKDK

Amino acid sequences for entries named in this document (tags omitted).
UniProt P9WJF4: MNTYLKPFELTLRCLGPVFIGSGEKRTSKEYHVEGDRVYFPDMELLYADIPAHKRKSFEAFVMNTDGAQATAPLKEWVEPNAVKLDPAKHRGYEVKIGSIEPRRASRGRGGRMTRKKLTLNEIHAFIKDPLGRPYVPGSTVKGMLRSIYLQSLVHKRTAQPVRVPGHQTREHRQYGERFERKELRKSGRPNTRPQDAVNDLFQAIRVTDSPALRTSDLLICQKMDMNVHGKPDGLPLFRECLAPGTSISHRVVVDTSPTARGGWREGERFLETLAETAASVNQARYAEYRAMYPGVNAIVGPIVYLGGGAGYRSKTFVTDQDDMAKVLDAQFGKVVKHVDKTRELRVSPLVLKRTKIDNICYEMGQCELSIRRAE
UniProt P9WPJ1: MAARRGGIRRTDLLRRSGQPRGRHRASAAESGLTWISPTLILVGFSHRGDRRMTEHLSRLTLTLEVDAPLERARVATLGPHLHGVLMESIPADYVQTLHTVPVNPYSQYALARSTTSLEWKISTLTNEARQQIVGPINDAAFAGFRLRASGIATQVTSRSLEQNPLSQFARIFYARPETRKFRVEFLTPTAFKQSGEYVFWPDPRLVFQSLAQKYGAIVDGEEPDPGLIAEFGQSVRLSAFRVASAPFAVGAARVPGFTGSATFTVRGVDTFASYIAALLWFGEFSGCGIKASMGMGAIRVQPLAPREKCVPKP

[2] = biological target: T2, M. tuberculosis CRISPR/Cas protein Csm1 (secreted, in culture filtrate) (M. tuberculosis H37Rv (endogenous in culture filtrate)) (UniProt P71629)
T2 sequence: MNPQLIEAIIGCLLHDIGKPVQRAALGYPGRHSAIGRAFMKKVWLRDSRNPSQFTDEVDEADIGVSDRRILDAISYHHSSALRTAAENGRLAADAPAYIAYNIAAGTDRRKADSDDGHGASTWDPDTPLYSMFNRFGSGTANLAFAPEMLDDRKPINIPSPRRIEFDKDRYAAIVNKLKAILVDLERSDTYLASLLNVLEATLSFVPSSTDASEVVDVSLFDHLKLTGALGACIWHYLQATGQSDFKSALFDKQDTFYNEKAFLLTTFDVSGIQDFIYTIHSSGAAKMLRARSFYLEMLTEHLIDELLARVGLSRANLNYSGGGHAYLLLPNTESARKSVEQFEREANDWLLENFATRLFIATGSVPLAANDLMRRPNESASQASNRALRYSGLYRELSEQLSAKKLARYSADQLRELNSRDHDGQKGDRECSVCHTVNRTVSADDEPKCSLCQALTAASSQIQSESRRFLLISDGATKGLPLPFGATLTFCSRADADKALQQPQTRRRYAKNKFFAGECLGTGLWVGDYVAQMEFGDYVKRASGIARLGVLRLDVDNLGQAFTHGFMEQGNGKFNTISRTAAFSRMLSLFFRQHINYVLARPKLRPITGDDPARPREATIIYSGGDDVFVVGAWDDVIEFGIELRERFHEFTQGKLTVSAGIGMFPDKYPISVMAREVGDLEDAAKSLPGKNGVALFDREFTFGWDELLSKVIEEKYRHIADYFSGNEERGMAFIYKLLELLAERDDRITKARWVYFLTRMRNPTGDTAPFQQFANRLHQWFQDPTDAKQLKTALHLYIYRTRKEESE

[3] = biological target: T3, M. tuberculosis CRISPR/Cas protein Csm3 (secreted, in culture filtrate) (M. tuberculosis H37Rv (endogenous in culture filtrate)) (UniProt P9WJF8)
T3 sequence: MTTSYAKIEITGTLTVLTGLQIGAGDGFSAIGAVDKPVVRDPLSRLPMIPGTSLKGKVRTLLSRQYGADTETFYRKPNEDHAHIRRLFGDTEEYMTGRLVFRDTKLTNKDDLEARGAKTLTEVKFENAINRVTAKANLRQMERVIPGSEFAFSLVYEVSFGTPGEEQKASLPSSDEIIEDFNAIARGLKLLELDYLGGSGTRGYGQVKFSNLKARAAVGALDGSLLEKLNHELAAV

[4] = biological target: M. tuberculosis CRISPR/Cas protein Csm5 (secreted, in culture filtrate) (M. tuberculosis H37Rv (endogenous in culture filtrate)) (UniProt P9WJF4)

Measured: binding

M. tuberculosis Cas6 (Rv2824c) (secreted, in culture filtrate) (from UniProt P9WPJ1 1-314)
no binding: all assays above

Reference: PMC8667911
